{"source": "patent US20180319855A1", "about": "“GENETICALLY MUTATED AEQUORIN-BASED BIOSENSORS WITH EXTRA SENSITIVITY TO CALCIUM AND IMPROVED BIOLUMINESCENCE INTENSITY” (CENTRE NATIONAL DE LA RECHERCHE SCIENTIFIQUE (CNRS), priority 2015, published 2018)", "molecules": {"B1": {"name": "Redq/QT + AT: aporedquorin mutant Q159T + A179T (SEQ ID NO:24) (protein)", "chain": "MVSKGEEVIKEFMRFKVRMEGSMNGHEFEIEGEGEGRPYEGTQTAKLKVTKGGPLPFAWDILSPQFMYGSKAYVKHPADIPDYKKLSFPEGFKWERVMNFEDGGLVTVTQDSSLQDGTLIYKVKMRGTNFPPDGPVMQKKTMGWEASTERLYPRDGVLKGEIHQALKLKDGGHYLVEFKTIYMAKKPVQLPGYYYVDTKLDITSHNEDYTIVEQYERSEGRHHLFLGHGTGSTGSGSSGTASSEDNNMAVIKEFMRFKVRMEGSMNGHEFEIEGEGEGRPYEGTQTAKLKVTKGGPLPFAWDILSPQFMYGSKAYVKHPADIPDYKKLSFPEGFKWERVMNFEDGGLVTVTQDSSLQDGTLIYKVKMRGTNFPPDGPVMQKKTMGWEASTERLYPRDGVLKGEIHQALKLKDGGHYLVEFKTIYMAKKPVQLPGYYYVDTKLDITSHNEDYTIVEQYERSEGRHHLFLSGFDNPRWIGRHKHMFNFLDVNHNGKISLDEMVYKASDIVINNLGATPEQAKRHKDAVEAFFGGAGMKYGVETDWPAYIEGWKKLATDELEKYAKNEPTLIRIWGDALFDIVDKDQNGAITLDEWKAYTKAAGIIQSSEDCEETFRVCDIDESGTLDVDEMTRQHLGFWYTMDPTCEKLYGGAVP", "modifications": "mutant aequorin"}, "B2": {"name": "S157D: apoaequorin mutant, serine 157 replaced by aspartic acid (SEQ ID NO:12) (protein)", "chain": "SKLTSDFDNPRWIGRHKHMFNFLDVNHNGKISLDEMVYKASDIVINNLGATPEQAKRHKDAVEAFFGGAGMKYGVETDWPAYIEGWKKLATDELEKYAKNEPTLIRIWGDALFDIVDKDQNGAITLDEWKAYTKAAGIIQSSEDCEETFRVCDIDEDGQLDVDEMTRQHLGFWYTMDPACEKLYGGAVP", "modifications": "mutant aequorin"}, "B3": {"name": "N121D: apoaequorin mutant, asparagine 121 replaced by aspartic acid (SEQ ID NO:9) (protein)", "chain": "SKLTSDFDNPRWIGRHKHMFNFLDVNHNGKISLDEMVYKASDIVINNLGATPEQAKRHKDAVEAFFGGAGMKYGVETDWPAYIEGWKKLATDELEKYAKNEPTLIRIWGDALFDIVDKDQDGAITLDEWKAYTKAAGIIQSSEDCEETFRVCDIDESGQLDVDEMTRQHLGFWYTMDPACEKLYGGAVP", "modifications": "mutant aequorin"}, "B4": {"name": "A123D: apoaequorin mutant, alanine 123 replaced by aspartic acid (SEQ ID NO:10) (protein)", "chain": "SKLTSDFDNPRWIGRHKHMFNFLDVNHNGKISLDEMVYKASDIVINNLGATPEQAKRHKDAVEAFFGGAGMKYGVETDWPAYIEGWKKLATDELEKYAKNEPTLIRIWGDALFDIVDKDQNGDITLDEWKAYTKAAGIIQSSEDCEETFRVCDIDESGQLDVDEMTRQHLGFWYTMDPACEKLYGGAVP", "modifications": "mutant aequorin"}, "B5": {"name": "Q159G: apoaequorin mutant, glutamine 159 replaced by glycine (SEQ ID NO:7) (protein)", "chain": "SKLTSDFDNPRWIGRHKHMFNFLDVNHNGKISLDEMVYKASDIVINNLGATPEQAKRHKDAVEAFFGGAGMKYGVETDWPAYIEGWKKLATDELEKYAKNEPTLIRIWGDALFDIVDKDQNGAITLDEWKAYTKAAGIIQSSEDCEETFRVCDIDESGGLDVDEMTRQHLGFWYTMDPACEKLYGGAVP", "modifications": "mutant aequorin"}, "B6": {"name": "A179T: apoaequorin mutant, alanine 179 replaced by threonine (SEQ ID NO:11) (protein)", "chain": "SKLTSDFDNPRWIGRHKHMFNFLDVNHNGKISLDEMVYKASDIVINNLGATPEQAKRHKDAVEAFFGGAGMKYGVETDWPAYIEGWKKLATDELEKYAKNEPTLIRIWGDALFDIVDKDQNGAITLDEWKAYTKAAGIIQSSEDCEETFRVCDIDESGQLDVDEMTRQHLGFWYTMDPTCEKLYGGAVP", "modifications": "mutant aequorin"}, "B7": {"name": "Aeq-wt: wild-type aequorin: apoaequorin of Aequorea victoria (SEQ ID NO:1) reconstituted with coelenterazine (protein, listed as Aequorea aequorea)", "chain": "SKLTSDFDNPRWIGRHKHMFNFLDVNHNGKISLDEMVYKASDIVINNLGATPEQAKRHKDAVEAFFGGAGMKYGVETDWPAYIEGWKKLATDELEKYAKNEPTLIRIWGDALFDIVDKDQNGAITLDEWKAYTKAAGIIQSSEDCEETFRVCDIDESGQLDVDEMTRQHLGFWYTMDPACEKLYGGAVP", "modifications": "reconstituted with coelenterazine; SITE (1)..(189) wild-type aequorin"}, "B8": {"name": "Q159D: apoaequorin mutant, glutamine 159 replaced by aspartic acid (SEQ ID NO:5) (protein)", "chain": "SKLTSDFDNPRWIGRHKHMFNFLDVNHNGKISLDEMVYKASDIVINNLGATPEQAKRHKDAVEAFFGGAGMKYGVETDWPAYIEGWKKLATDELEKYAKNEPTLIRIWGDALFDIVDKDQNGAITLDEWKAYTKAAGIIQSSEDCEETFRVCDIDESGDLDVDEMTRQHLGFWYTMDPACEKLYGGAVP", "modifications": "mutant aequorin"}, "B9": {"name": "Q159T: apoaequorin mutant, glutamine 159 replaced by threonine (SEQ ID NO:6) (protein)", "chain": "SKLTSDFDNPRWIGRHKHMFNFLDVNHNGKISLDEMVYKASDIVINNLGATPEQAKRHKDAVEAFFGGAGMKYGVETDWPAYIEGWKKLATDELEKYAKNEPTLIRIWGDALFDIVDKDQNGAITLDEWKAYTKAAGIIQSSEDCEETFRVCDIDESGTLDVDEMTRQHLGFWYTMDPACEKLYGGAVP", "modifications": "mutant aequorin"}, "B10": {"name": "QD + ND: apoaequorin double mutant Q159D + N121D (SEQ ID NO:13) (protein)", "chain": "SKLTSDFDNPRWIGRHKHMFNFLDVNHNGKISLDEMVYKASDIVINNLGATPEQAKRHKDAVEAFFGGAGMKYGVETDWPAYIEGWKKLATDELEKYAKNEPTLIRIWGDALFDIVDKDQDGAITLDEWKAYTKAAGIIQSSEDCEETFRVCDIDESGDLDVDEMTRQHLGFWYTMDPACEKLYGGAVP", "modifications": "mutant aequorin"}, "B11": {"name": "QD + AD: apoaequorin double mutant Q159D + A123D (SEQ ID NO:15) (protein)", "chain": "SKLTSDFDNPRWIGRHKHMFNFLDVNHNGKISLDEMVYKASDIVINNLGATPEQAKRHKDAVEAFFGGAGMKYGVETDWPAYIEGWKKLATDELEKYAKNEPTLIRIWGDALFDIVDKDQNGDITLDEWKAYTKAAGIIQSSEDCEETFRVCDIDESGDLDVDEMTRQHLGFWYTMDPACEKLYGGAVP", "modifications": "mutant aequorin"}, "B12": {"name": "QT + AT: apoaequorin double mutant Q159T + A179T (SEQ ID NO:18) (protein)", "chain": "SKLTSDFDNPRWIGRHKHMFNFLDVNHNGKISLDEMVYKASDIVINNLGATPEQAKRHKDAVEAFFGGAGMKYGVETDWPAYIEGWKKLATDELEKYAKNEPTLIRIWGDALFDIVDKDQNGAITLDEWKAYTKAAGIIQSSEDCEETFRVCDIDESGTLDVDEMTRQHLGFWYTMDPTCEKLYGGAVP", "modifications": "mutant aequorin"}, "B13": {"name": "QT + ND: apoaequorin double mutant Q159T + N121D (SEQ ID NO:14) (protein)", "chain": "SKLTSDFDNPRWIGRHKHMFNFLDVNHNGKISLDEMVYKASDIVINNLGATPEQAKRHKDAVEAFFGGAGMKYGVETDWPAYIEGWKKLATDELEKYAKNEPTLIRIWGDALFDIVDKDQDGAITLDEWKAYTKAAGIIQSSEDCEETFRVCDIDESGTLDVDEMTRQHLGFWYTMDPACEKLYGGAVP", "modifications": "mutant aequorin"}, "B14": {"name": "QT + AD: apoaequorin double mutant Q159T + A123D (SEQ ID NO:16) (protein)", "chain": "SKLTSDFDNPRWIGRHKHMFNFLDVNHNGKISLDEMVYKASDIVINNLGATPEQAKRHKDAVEAFFGGAGMKYGVETDWPAYIEGWKKLATDELEKYAKNEPTLIRIWGDALFDIVDKDQNGDITLDEWKAYTKAAGIIQSSEDCEETFRVCDIDESGTLDVDEMTRQHLGFWYTMDPACEKLYGGAVP", "modifications": "mutant aequorin"}, "B15": {"name": "QD + AT: apoaequorin double mutant Q159D + A179T (SEQ ID NO:17) (protein)", "chain": "SKLTSDFDNPRWIGRHKHMFNFLDVNHNGKISLDEMVYKASDIVINNLGATPEQAKRHKDAVEAFFGGAGMKYGVETDWPAYIEGWKKLATDELEKYAKNEPTLIRIWGDALFDIVDKDQNGAITLDEWKAYTKAAGIIQSSEDCEETFRVCDIDESGDLDVDEMTRQHLGFWYTMDPTCEKLYGGAVP", "modifications": "mutant aequorin"}}}
{"assay": "Spectral measurement of bioluminescence emission", "format": "physicochemical", "settings": "CLZ-f; redquorin series, CitA, GA", "description": "(§1) Spectral Measurement and Analysis.\n(§2) Fifteen microliter aliquot of photoprotein samples was brought in contact with 200 μl saturating calcium solution (50 mM Tris-HCl, 100 mM CaCl2, pH 7.5) in a PCR tube to induce light emission. Emitted photons were collected via an optic fiber, guided into a spectrometer (Specim), and captured by an EM-CCD camera (Andor DU-897 back illuminated). Spectral calibration was performed using laser pointers (405 and 650 nm). This home-made setup, from the lab of Prof. Philippe Brûlet, allowed immediate and synchronous spectral analysis (no scanning) of emitted luminescence with 1-nm resolution (Curie et al. 2007).", "units": {"Spectral emission peak": "nm"}}
{"molecule": "B1", "Spectral emission peak": 582}
{"assay": "Spectral measurement of bioluminescence emission", "format": "physicochemical", "settings": "CLZ-f; saturating calcium", "description": "as §1, §2", "units": {"Spectral emission peak": "nm"}}
{"molecule": "B2", "Spectral emission peak": 475}
{"molecule": "B3", "Spectral emission peak": 477}
{"molecule": "B4", "Spectral emission peak": 476}
{"molecule": "B5", "Spectral emission peak": 478}
{"molecule": "B6", "Spectral emission peak": 477}
{"molecule": "B7", "Spectral emission peak": 476}
{"molecule": "B8", "Spectral emission peak": 478}
{"molecule": "B9", "Spectral emission peak": 477}
{"molecule": "B10", "Spectral emission peak": 477}
{"molecule": "B11", "Spectral emission peak": 475}
{"molecule": "B12", "Spectral emission peak": 478}
{"molecule": "B13", "Spectral emission peak": 478}
{"molecule": "B14", "Spectral emission peak": 476}
{"molecule": "B15", "Spectral emission peak": 478}
{"assay": "Spectral measurement of bioluminescence emission", "format": "physicochemical", "settings": "CLZ-native; redquorin series, CitA, GA", "description": "as §1, §2", "units": {"Spectral emission peak": "nm"}}
{"molecule": "B1", "Spectral emission peak": 582}
